Results: PMC7070046
Results are given in words; binding and its absence hold for the method and conditions named. In cells and extracts the contact can be indirect. A yes stands for co-enrichment or nearness to the bait. Other partners may have been found. Tags and fused reporters may be left off the sequences shown.

Protein sequences, listed by entry. Tags and fused reporters are not part of them.
UniProt O95271: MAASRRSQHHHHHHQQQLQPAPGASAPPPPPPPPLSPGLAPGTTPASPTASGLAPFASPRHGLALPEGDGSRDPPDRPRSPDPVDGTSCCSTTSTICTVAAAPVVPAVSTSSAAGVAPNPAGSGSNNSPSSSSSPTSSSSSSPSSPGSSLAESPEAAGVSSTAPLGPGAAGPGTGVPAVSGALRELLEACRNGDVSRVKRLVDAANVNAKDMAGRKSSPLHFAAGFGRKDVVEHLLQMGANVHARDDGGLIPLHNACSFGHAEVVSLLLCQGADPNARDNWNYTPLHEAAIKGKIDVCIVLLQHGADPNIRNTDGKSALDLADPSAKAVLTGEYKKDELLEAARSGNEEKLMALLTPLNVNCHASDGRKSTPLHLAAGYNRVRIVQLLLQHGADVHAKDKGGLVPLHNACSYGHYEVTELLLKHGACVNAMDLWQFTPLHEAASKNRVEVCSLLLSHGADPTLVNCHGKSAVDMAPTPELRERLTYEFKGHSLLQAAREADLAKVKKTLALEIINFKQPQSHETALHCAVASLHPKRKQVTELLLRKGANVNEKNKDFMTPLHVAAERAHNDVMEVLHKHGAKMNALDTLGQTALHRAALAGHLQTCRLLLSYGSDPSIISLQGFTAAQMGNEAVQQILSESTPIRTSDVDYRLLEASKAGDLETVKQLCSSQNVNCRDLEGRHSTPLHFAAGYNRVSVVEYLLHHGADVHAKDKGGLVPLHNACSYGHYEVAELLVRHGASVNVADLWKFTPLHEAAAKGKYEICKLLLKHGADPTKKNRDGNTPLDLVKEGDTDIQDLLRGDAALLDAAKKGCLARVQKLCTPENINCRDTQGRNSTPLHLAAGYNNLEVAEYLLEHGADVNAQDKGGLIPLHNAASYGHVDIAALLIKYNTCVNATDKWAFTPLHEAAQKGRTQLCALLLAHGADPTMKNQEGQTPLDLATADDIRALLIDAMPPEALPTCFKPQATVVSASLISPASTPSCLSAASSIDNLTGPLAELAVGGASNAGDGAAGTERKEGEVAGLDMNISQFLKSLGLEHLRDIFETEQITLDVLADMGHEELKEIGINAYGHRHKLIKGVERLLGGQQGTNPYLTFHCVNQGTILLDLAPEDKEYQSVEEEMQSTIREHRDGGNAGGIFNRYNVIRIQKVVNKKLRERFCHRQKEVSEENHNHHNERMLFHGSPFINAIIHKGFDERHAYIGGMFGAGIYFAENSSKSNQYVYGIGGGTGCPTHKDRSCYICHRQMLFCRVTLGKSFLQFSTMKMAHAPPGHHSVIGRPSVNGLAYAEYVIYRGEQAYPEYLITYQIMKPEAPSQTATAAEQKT

Target: T1, His-GFP-SSSCA1 (SSSCA1 FL, residues A2-H199) (human) (UniProt O60232)
T1 sequence: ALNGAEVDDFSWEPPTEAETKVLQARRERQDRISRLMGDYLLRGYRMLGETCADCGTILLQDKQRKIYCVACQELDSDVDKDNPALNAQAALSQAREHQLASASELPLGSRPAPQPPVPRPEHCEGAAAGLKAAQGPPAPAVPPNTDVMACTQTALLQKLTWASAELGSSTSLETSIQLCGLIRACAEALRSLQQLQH
Test: affinity purification with mass spectrometry; tandem-affinity purification (His SpinTrap, then GFP-Trap A beads) of His-GFP-SSSCA1 from lysates of transfected HeLa, SW480 or LNCaP cells, 18 h after transfection; 50 mM HEPES pH 7.4, 150 mM NaCl, 5% glycerol, 0.5% NP40; gel slices, LC-MS/MS

binding: binds
Substance: Tankyrase 1 (TNKS1), endogenous (from UniProt O95271 1-1327) (enzyme)
